Drawing on paper PMC7819943, “Rice protein-binding microarrays: a tool to detect cis-acting elements near promoter regions in rice”, this text covers binding signal for 42 sequences.

Chains of the proteins cited; added tags and fusions are not shown.
UniProt Q0JBA9, entry or part of it: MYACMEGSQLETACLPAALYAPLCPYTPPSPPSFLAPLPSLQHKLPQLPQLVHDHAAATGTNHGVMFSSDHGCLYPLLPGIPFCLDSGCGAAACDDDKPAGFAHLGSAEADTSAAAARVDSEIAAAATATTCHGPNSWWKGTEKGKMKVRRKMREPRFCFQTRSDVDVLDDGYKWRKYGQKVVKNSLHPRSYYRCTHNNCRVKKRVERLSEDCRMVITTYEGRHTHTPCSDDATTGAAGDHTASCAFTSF

This is one part of the list.

This assay concerns the target OsWRKY34 (Oryza sativa, UniProt Q0JBA9 1-250). Put plainly: protein-binding microarray (RPBM); PBS, 2% BSA, 51.3 ng/ul salmon testes DNA, 50 uM zinc acetate, 200 nM TF, 25 C, 1 h; high values mean tight binding. To be noted: protein: recombinant; tags: N-terminal polyhistidine and DsRed monomer fusion (pET32a); label: CyDye5-dUTP incorporated in the synthesized complementary strand; 3' TTTTT single-stranded linker to array surface; dsDNA, one strand shown. The procedure, abridged: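 Transcription factors were each fused at the N-terminus to a polyhistidine tag plus DsRed and expressed in E. coli BL21-CodonPlus before Ni–NTA purification. Binding to a double-stranded custom Agilent array was carried out with 200 nM protein at 25 °C for 1 h in PBS, 2% BSA, salmon testes DNA and 50 µM zinc acetate. The binding signal is per-feature fluorescence intensity, in arbitrary units, on an Axon 4000B scanner.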
Regarding “ACTTTTTCTGTGACAGACTGATATATTTATTTCTTAATTCCGGAGTCACCTAGTGCAG”, the binding signal is 12400 fluorescence intensity (a.u.).

On to “ATTGGTAGCTACGAGCCTACGACCTCGCTGCCTCGTATCGCGGAGTCACCTAGTGCAG”, for which the binding signal was 8820 fluorescence intensity (a.u.).

Take “GTTCTTTTTTACGTAAATTGGTTGAAGTCTTCAAAATCTCCGGAGTCACCTAGTGCAG”: the binding signal is 9010 fluorescence intensity (a.u.).

Regarding “ACAGGAGGTGTACCATAGTTCGTGTTTTTTTCTAGTTTACCGGAGTCACCTAGTGCAG”, the binding signal was 11400 fluorescence intensity (a.u.).

Take “GAATTATTTTGATATAGATGTATTTAGCGTACCATTTTACCGGAGTCACCTAGTGCAG”: the binding signal is 9400 fluorescence intensity (a.u.).

Regarding “GTTTTCAGGCTTTTTCAGGTTTCTGTCCATTGTTTTTCTACGGAGTCACCTAGTGCAG”, the binding signal was 11100 fluorescence intensity (a.u.).

With “TCTGTCTCCACATGATACCATACGCATGGCACACTTGATACGGAGTCACCTAGTGCAG”, the binding signal was 8790 fluorescence intensity (a.u.).

“CACCGCACCTACACCCACTCACTCTCACCATCCATCGGGACGGAGTCACCTAGTGCAG”: the binding signal was 9070 fluorescence intensity (a.u.).

Turning to “CGCCTGACGACGCAACGCCAATGCCAAGAACCACCACCACCGGAGTCACCTAGTGCAG”, the binding signal is 8220 fluorescence intensity (a.u.).

Regarding “CTAACTGCATCCACCATTCCACCGTCATCCTCGCCGTCCCCGGAGTCACCTAGTGCAG”, the binding signal was 11800 fluorescence intensity (a.u.).

With “GCCGTCTGCCTCCCACCACTTGACAACAACAAAGTCTCTCCGGAGTCACCTAGTGCAG”, the binding signal is 10300 fluorescence intensity (a.u.).

“TGTTTGTGGATTATAAAGCGAGCACTACATTGTTTTGTATCGGAGTCACCTAGTGCAG”: the binding signal is 10500 fluorescence intensity (a.u.).

For the sequence “TGTTTGTGGGGTGAGACAAGTGGAATAAGAGTGCTACTATCGGAGTCACCTAGTGCAG”, the binding signal is 8330 fluorescence intensity (a.u.).

As to “TCCCCAAGGATCCTATCTACAAGATCTGCTGCTTCGGCGACGGAGTCACCTAGTGCAG”, the binding signal is 9130 fluorescence intensity (a.u.).

Take “ACCCGACCGCCTCCATGGCTTCTTCGAGGACCACCAGACCCGGAGTCACCTAGTGCAG”: the binding signal is 8150 fluorescence intensity (a.u.).

“TACAGGGACAACCCGCGCGACATCCCGCTCAACTACGCCACGGAGTCACCTAGTGCAG”: the binding signal is 9170 fluorescence intensity (a.u.).

For “CATAGCCTCGACATTACTAGCCAAGTACACCTGTTGGTCCCGGAGTCACCTAGTGCAG”, the binding signal was 8680 fluorescence intensity (a.u.).

On to “ACACCATTGACTTTTTAATATGTGTTTGACCATTCGTCTTCGGAGTCACCTAGTGCAG”, for which the binding signal was 19200 fluorescence intensity (a.u.).

With “TATATGTGTGCTGTGATTTTATTTTTATTCCTCACCAAAACGGAGTCACCTAGTGCAG”, the binding signal was 11300 fluorescence intensity (a.u.).

Turning to “GCCCGAACATTCCCCATGAAACACTCTATATAATAACCGACGGAGTCACCTAGTGCAG”, the binding signal is 9180 fluorescence intensity (a.u.).

With “CTATTATGTGCATTTTGTTTTTTATATGTTGCTCTTCTAACGGAGTCACCTAGTGCAG”, the binding signal is 9450 fluorescence intensity (a.u.).

For the sequence “AAATTTGTTAGACAAACTCCTATTATTTGCATTATCGCCTCGGAGTCACCTAGTGCAG”, the binding signal was 8250 fluorescence intensity (a.u.).

Turning to “TCTCTTCTTTCATGTAATGAAACTGTTGCCCGTGTAATCTCGGAGTCACCTAGTGCAG”, the binding signal was 8560 fluorescence intensity (a.u.).

On to “GCAACTAACCGCGCGTCTTCCTCGCATCAGCCGCGTCATTCGGAGTCACCTAGTGCAG”, for which the binding signal is 11300 fluorescence intensity (a.u.).

For “CTTTGCTTGCTTTGCCTGCCTCGCTTCGCTCGCATCACGTCGGAGTCACCTAGTGCAG”, the binding signal is 11100 fluorescence intensity (a.u.).

As for “TTTTATTTTTTTTATTTCACCCTATCTCTTCCTTGCGTCTCGGAGTCACCTAGTGCAG”, the binding signal was 8150 fluorescence intensity (a.u.).

Consider “CATCATTGTACTGTTAATTAAATCATCATGGTCATTATCACGGAGTCACCTAGTGCAG”, for which the binding signal is 9360 fluorescence intensity (a.u.).

On to “CATAAAACTACATATACTTTGCACGATCTATCACAAAACTCGGAGTCACCTAGTGCAG”, for which the binding signal was 8300 fluorescence intensity (a.u.).

Consider “ACCCATGCATGATCACCTTGTTGACCTAGTACTGATGATGCGGAGTCACCTAGTGCAG”, for which the binding signal was 9850 fluorescence intensity (a.u.).

Consider “ACCATTCGTCCATATATTGCCACCGCTTCGTAGCTCAAGCCGGAGTCACCTAGTGCAG”, for which the binding signal is 9860 fluorescence intensity (a.u.).

In the case of “ACTAGACTACCAGTAACTTTTCCTTTCTTTTTATTTTTTTCGGAGTCACCTAGTGCAG”, the binding signal was 9980 fluorescence intensity (a.u.).

“ACTTGGGTATTACGTTTCCCTGTATATTATGGAACGGCCTCGGAGTCACCTAGTGCAG”: the binding signal was 9570 fluorescence intensity (a.u.).

Regarding “TGCAATTTCATTTTGGACATTTTTACTGGGGCACCAAAATCGGAGTCACCTAGTGCAG”, the binding signal is 10300 fluorescence intensity (a.u.).

As for “AGGCACCACCATTCCCTCCTCACCACACACACCCCAATCTCGGAGTCACCTAGTGCAG”, the binding signal is 8040 fluorescence intensity (a.u.).

Turning to “TTTGCTTACCTCACACTTACTGTACACACCAAACATAATACGGAGTCACCTAGTGCAG”, the binding signal was 8350 fluorescence intensity (a.u.).

With “CCCATTTAAAGCCGTGCACATGGCCCGAGGTTCTCCACTCCGGAGTCACCTAGTGCAG”, the binding signal is 8020 fluorescence intensity (a.u.).

Turning to “GTGACAGCGCTCATTCTGTCGCGGATTGCCGGATTCGTTTCGGAGTCACCTAGTGCAG”, the binding signal is 10300 fluorescence intensity (a.u.).

In the case of “CACACACAAACACCTACCCTTCTCTCCCGTGAGGCTGTGACGGAGTCACCTAGTGCAG”, the binding signal is 8510 fluorescence intensity (a.u.).

In the case of “CATGCAGGAGGTTATCCGCTGTGTCTTCGCTCGCCTGCCTCGGAGTCACCTAGTGCAG”, the binding signal is 9720 fluorescence intensity (a.u.).

Turning to “TTCAATCCCTTCACCGCCTTACAATTTTAACGTTACACCGCGGAGTCACCTAGTGCAG”, the binding signal is 8370 fluorescence intensity (a.u.).

As for “GAGTACTCCACTGCTACTATCTTTGTCCTGCAGCAATCTCCGGAGTCACCTAGTGCAG”, the binding signal was 15000 fluorescence intensity (a.u.).

On to “TGCACTTCTTTTTTTTTTGTCGGGGTATGAATCGCTACCACGGAGTCACCTAGTGCAG”, for which the binding signal is 9880 fluorescence intensity (a.u.).
